PubChem BioAssay AID504764 | Drosophila RNAi Screening Center, 2011
The deposit covers about 22,000 reagents; this is a random part of those with a known target gene and a result. Over the whole deposit, 403 (1.9%) were called active. 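Unnormalised raw counts per well; ratio z-scores behind the hit calls and whether each hit raises or lowers signal are not deposited.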 A plus sign joins genes that one reagent is predicted to hit. The record does not give: the amount of reagent.

Screen: 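Genome-wide screen for regulators of Notch-driven gene expression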 (primary screen)
Cells: Drosophila Kc167 cells
Knock-down reagent: long dsRNA against Drosophila genes
Time to read-out: about 5 days (4 days dsRNA, then 24 h after transfection)
Challenge: transfection of constitutively active membrane-tethered Notch lacking the extracellular domain, read 24 h later
Detection: 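Firefly luciferase from an E(spl)m3 reporter with active Notch, plus control-promoter and uninduced reporter wells for normalisation; unnormalised counts, duplicate wells a and b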
Direction: induced reporter light, run 1, well a and induced reporter light, run 1, well b: higher = more light from the Notch target reporter with active Notch; control promoter light, run 1, well a and control promoter light, run 1, well b: higher = more light from the viral control promoter (cell number, transfection, viability); uninduced reporter light, run 1, well a: higher = more light from the Notch target reporter without active Notch
Call rule: 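Wells with low control signal or poorly matching duplicates excluded; duplicates averaged; per source plate, z beyond ±2 for induced/control log2 ratio or beyond ±1.8 for induced/uninduced marks a hit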
Calls: active = modifier hit (raised or lowered Notch signal); inactive = not a hit

| Gene | dsRNA | induced reporter light, run 1, well a | induced reporter light, run 1, well b | control promoter light, run 1, well a | control promoter light, run 1, well b | uninduced reporter light, run 1, well a | Call |
| --- | --- | --- | --- | --- | --- | --- | --- |
| Hat1 (Histone acetyltransferase 1) | DRSC12298 | 90735 | 96805 | 84540 | 69965 | 4610 | inactive |
| Rad60 | DRSC15580 | 1.04e5 | 98055 | 80960 | 1.21e5 | 8610 | inactive |
| CG32213 + CG12519 + 825-Oak + 1 more | DRSC09615 | 3.12e5 | 3.21e5 | 4.06e5 | 3.19e5 | 23200 | inactive |
| Cyp6d5 (Cytochrome P450 6d5) | DRSC16634 | 1.49e5 | 1.64e5 | 88270 | 83725 | 10480 | inactive |
| Best4 (Bestrophin 4) | DRSC10792 | 1.90e5 | 2.16e5 | 2.66e5 | 2.17e5 | 13595 | inactive |
| CG17636 | DRSC20648 | 91630 | 81970 | 96150 | 1.04e5 | 7870 | inactive |
| CG9921 | DRSC20220 | 2.04e5 | 2.11e5 | 2.59e5 | 2.33e5 | 13175 | inactive |
| Muc18B (Mucin 18B) | DRSC20064 | 72035 | 80995 | 91100 | 1.20e5 | 10335 | inactive |
| Muc18B (Mucin 18B) | DRSC21644 | – | – | – | – | – | inactive |
| CG14752 | DRSC06488 | 1.83e5 | 1.86e5 | 2.55e5 | 2.68e5 | 15700 | inactive |
| CG43861 + CG12508 (retired record) | DRSC02170 | 33505 | 37395 | 43850 | 31760 | 2188 | inactive |
| Cox10 (Cytochrome c oxidase assembly factor 10) | DRSC02804 | 2.18e5 | 2.21e5 | 1.78e5 | 1.80e5 | 15175 | inactive |
| CG1835 | DRSC20560 | 1.02e5 | 1.11e5 | 1.23e5 | 1.30e5 | 12810 | inactive |
| hang (hangover) | DRSC19901 | 28690 | 32765 | 14155 | 17885 | 4965 | inactive |
| hang (hangover) | DRSC19902 | 6375 | 7860 | 6535 | 6085 | 4615 | inactive |
| CG3909 | DRSC14150 | 1.31e5 | 1.86e5 | 1.46e5 | 1.06e5 | 5285 | inactive |

4 of these entries, reformatted.
Gene	dsRNA	induced reporter light, run 1, well a	induced reporter light, run 1, well b	control promoter light, run 1, well a	control promoter light, run 1, well b	uninduced reporter light, run 1, well a	Call
CG17636	DRSC20648	91630	81970	96150	1.04e5	7870	inactive
CG9921	DRSC20220	2.04e5	2.11e5	2.59e5	2.33e5	13175	inactive
Muc18B (Mucin 18B)	DRSC20064	72035	80995	91100	1.20e5	10335	inactive
Muc18B (Mucin 18B)	DRSC21644						inactive

Continued.
| Gene | dsRNA | induced reporter light, run 1, well a | induced reporter light, run 1, well b | control promoter light, run 1, well a | control promoter light, run 1, well b | uninduced reporter light, run 1, well a | Call |
| --- | --- | --- | --- | --- | --- | --- | --- |
| CG6484 | DRSC06991 | 84480 | 92510 | 1.65e5 | 1.83e5 | 9250 | inactive |
| CG5446 | DRSC02862 | 1.45e5 | 1.55e5 | 1.38e5 | 1.39e5 | 9915 | inactive |
| RpL17 (Ribosomal protein L17) | DRSC18293 | 10030 | 9135 | 15230 | 15275 | 765 | inactive |
| Alr (Augmenter of liver regeneration) | DRSC19469 | 1.13e5 | 1.21e5 | 1.32e5 | 1.82e5 | 13125 | inactive |
| CG15126 | DRSC06548 | 38370 | 35250 | 35020 | 37605 | 4080 | inactive |
| CG17030 | DRSC08503 | 2.12e5 | 1.84e5 | 2.64e5 | 2.22e5 | 10465 | inactive |
| kune (kune-kune) | DRSC04860 | 1.45e5 | 1.36e5 | 1.62e5 | 1.49e5 | 9825 | inactive |
| bgm (bubblegum) | DRSC03495 | 1.94e5 | 1.73e5 | 1.84e5 | 2.10e5 | 13400 | inactive |
| osk (oskar) | DRSC17023 | 1.30e5 | 1.20e5 | 96345 | 79705 | 10625 | inactive |
| Skeletor (retired record) | DRSC14905 | 1.04e5 | 74815 | 74170 | 57610 | 5760 | inactive |
| Skeletor (retired record) | DRSC14906 | 1.49e5 | 1.28e5 | 1.01e5 | 93110 | 9855 | inactive |
| CG14937 | DRSC02419 | 1.34e5 | 1.57e5 | 95745 | 1.28e5 | 19505 | inactive |
| CG17140 + CG17139 | DRSC02585 | 1.39e5 | 1.97e5 | 1.01e5 | 1.17e5 | 19240 | inactive |
| CG17140 + CG17139 | DRSC02586 | 1.16e5 | 1.45e5 | 73445 | 89345 | 17065 | inactive |
| CG12974 | DRSC11684 | 1.31e5 | 1.24e5 | 1.45e5 | 1.45e5 | 7750 | inactive |
| CG7551 | DRSC10876 | 98635 | 72620 | 1.30e5 | 71035 | 6465 | inactive |
| Adf1 (Adh transcription factor 1) | DRSC04941 | 67405 | 94295 | 80055 | 99845 | 3820 | inactive |
| Adf1 (Adh transcription factor 1) | DRSC04963 | 1.35e5 | 1.63e5 | 1.21e5 | 1.41e5 | 13090 | inactive |
| h-cup (heineken-cup) | DRSC15973 | 1.06e5 | 88025 | 1.11e5 | 99425 | 8065 | inactive |
| mRpL23 (mitochondrial ribosomal protein L23) | DRSC08307 | 1.26e5 | 1.15e5 | 1.48e5 | 1.93e5 | 5800 | inactive |
| CG13566 | DRSC04203 | 2.00e5 | 1.97e5 | 1.76e5 | 1.43e5 | 13575 | inactive |
| hpRNA:CR32205 (hairpin RNA:CR32205) | DRSC09890 | 1.07e5 | 95635 | 1.04e5 | 85905 | 6320 | inactive |
| Pdxk (Pyridoxal kinase) | DRSC10419 | 1.71e5 | 1.97e5 | 3.06e5 | 2.52e5 | 5590 | inactive |
| Jon99Fii (Jonah 99Fii) | DRSC15430 | 1.17e5 | 1.07e5 | 1.55e5 | 1.38e5 | 8565 | inactive |
| Amyrel (Amylase related) | DRSC05920 | 1.05e5 | 1.07e5 | 1.89e5 | 1.81e5 | 8310 | inactive |
| Fgop2 (Fibroblast growth factor receptor 1 oncogene partner 2) | DRSC02016 | 86250 | 92735 | 98105 | 1.07e5 | 8955 | inactive |
| ktub (king tubby) | DRSC04551 | 1.99e5 | 2.02e5 | 1.73e5 | 1.84e5 | 15642 | inactive |
| CenG1A (Centaurin gamma 1A) | DRSC02538 | 87690 | 1.01e5 | 1.21e5 | 1.43e5 | 8425 | inactive |
| CenG1A (Centaurin gamma 1A) | DRSC03505 | 1.52e5 | 1.35e5 | 1.82e5 | 1.46e5 | 11675 | inactive |
| CenG1A (Centaurin gamma 1A) | DRSC03506 | 1.20e5 | 1.34e5 | 1.65e5 | 1.63e5 | 12750 | inactive |
| fw (furrowed) | DRSC20334 | 1.26e5 | 1.34e5 | 1.89e5 | 2.34e5 | 8310 | inactive |
| MED6 (Mediator complex subunit 6) | DRSC16500 | 1.14e5 | 1.15e5 | 73620 | 68800 | 9670 | inactive |
| CG9449 | DRSC11073 | 1.02e5 | 64305 | 72740 | 50740 | 5615 | inactive |
| CG9399 | DRSC16488 | 55290 | 60415 | 39150 | 35715 | 3035 | inactive |
